Our source for the binding values is publication PMC4537249.

By UniProt entry, the sequences of proteins in these tests, tags left out.
UniProt O14980: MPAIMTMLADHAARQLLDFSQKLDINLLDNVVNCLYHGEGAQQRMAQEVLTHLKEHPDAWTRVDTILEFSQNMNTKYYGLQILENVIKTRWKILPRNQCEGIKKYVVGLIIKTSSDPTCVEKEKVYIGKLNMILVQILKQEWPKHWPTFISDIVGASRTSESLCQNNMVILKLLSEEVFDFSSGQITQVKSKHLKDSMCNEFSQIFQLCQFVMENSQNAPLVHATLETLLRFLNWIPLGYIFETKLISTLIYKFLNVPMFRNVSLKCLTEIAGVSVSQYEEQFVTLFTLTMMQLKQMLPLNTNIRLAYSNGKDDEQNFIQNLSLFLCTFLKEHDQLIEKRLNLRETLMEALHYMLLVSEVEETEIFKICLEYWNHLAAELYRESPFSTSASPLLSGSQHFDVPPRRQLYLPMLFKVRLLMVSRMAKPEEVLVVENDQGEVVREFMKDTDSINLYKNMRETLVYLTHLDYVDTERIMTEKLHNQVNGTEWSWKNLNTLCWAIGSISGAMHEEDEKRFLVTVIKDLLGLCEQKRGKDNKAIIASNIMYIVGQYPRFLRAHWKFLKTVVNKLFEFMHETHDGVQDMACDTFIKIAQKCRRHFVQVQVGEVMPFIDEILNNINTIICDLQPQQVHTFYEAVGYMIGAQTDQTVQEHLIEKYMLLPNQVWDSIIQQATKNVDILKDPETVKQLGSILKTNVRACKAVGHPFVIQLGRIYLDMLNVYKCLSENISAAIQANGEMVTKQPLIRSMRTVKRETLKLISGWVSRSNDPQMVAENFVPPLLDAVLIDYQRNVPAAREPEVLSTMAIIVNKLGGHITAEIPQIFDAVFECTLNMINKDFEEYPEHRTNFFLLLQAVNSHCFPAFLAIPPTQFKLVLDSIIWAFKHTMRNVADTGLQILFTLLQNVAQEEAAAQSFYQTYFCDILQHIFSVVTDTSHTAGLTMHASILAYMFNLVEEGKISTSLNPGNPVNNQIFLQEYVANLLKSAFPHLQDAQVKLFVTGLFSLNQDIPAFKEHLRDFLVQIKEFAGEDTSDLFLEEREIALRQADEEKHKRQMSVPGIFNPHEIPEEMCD

No constants are given. Whether binding was seen depends on the method and setting. Binding seen in cells or lysates may run through a third protein. Some entries that bind do so weakly or less than the wild type. Tags and fused reporters may be left off the sequences shown.

The chains are these.
B1: GNL3L^51–500-GFP (domain or fragment, UniProt Q9NVN8 51-500)
chain: DHANREAELKKKWVEEMREKQQAAREQERQKRRTIESYCQDVLRRQEEFEHKEEVLQELNMFPQLDDEATRKAYYKEFRKVVEYSDVILEVLDARDPLGCRCFQMEEAVLRAQGNKKLVLVLNKIDLVPKEVVEKWLDYLRNELPTVAFKASTQHQVKNLNRCSVPVDQASESLLKSKACFGAENLMRVLGNYCRLGEVRTHIRVGVVGLPNVGKSSLINSLKRSRACSVGAVPGITKFMQEVYLDKFIRLLDAPGIVPGPNSEVGTILRNCVHVQKLADPVTPVETILQRCNLEEISNYYGVSGFQTTEHFLTAVAHRLGKKKKGGLYSQEQAAKAVLADWVSGKISFYIPPPATHTLPTHLSAEIVKEMTEVFDIEDTEQANEDTMECLATGESDELLGDTDPLEMEIKLLHSPMTKIADAIENKTTVYKIGDLTGYCTNPNRHQMGW
B2: GNL3L^501–582-GFP (domain or fragment, UniProt Q9NVN8 501-582)
chain: AKRNVDHRPKSNSMVDVCSVDRRSVLQRIMETDPLQQGQALASALKNKKKMQKRADKIASKLSDSMMSALDLSGNADDGVGD
B3: GNL3L^51–547-GFP (domain or fragment, UniProt Q9NVN8 51-547)
chain: DHANREAELKKKWVEEMREKQQAAREQERQKRRTIESYCQDVLRRQEEFEHKEEVLQELNMFPQLDDEATRKAYYKEFRKVVEYSDVILEVLDARDPLGCRCFQMEEAVLRAQGNKKLVLVLNKIDLVPKEVVEKWLDYLRNELPTVAFKASTQHQVKNLNRCSVPVDQASESLLKSKACFGAENLMRVLGNYCRLGEVRTHIRVGVVGLPNVGKSSLINSLKRSRACSVGAVPGITKFMQEVYLDKFIRLLDAPGIVPGPNSEVGTILRNCVHVQKLADPVTPVETILQRCNLEEISNYYGVSGFQTTEHFLTAVAHRLGKKKKGGLYSQEQAAKAVLADWVSGKISFYIPPPATHTLPTHLSAEIVKEMTEVFDIEDTEQANEDTMECLATGESDELLGDTDPLEMEIKLLHSPMTKIADAIENKTTVYKIGDLTGYCTNPNRHQMGWAKRNVDHRPKSNSMVDVCSVDRRSVLQRIMETDPLQQGQALASALKN
B4: GNL3L^1–582-GFP (wild type GNL3L, C-terminal eGFP fusion) (protein, UniProt Q9NVN8 1-582)
chain: MMKLRHKNKKPGEGSKGHKKISWPYPQPAKQNGKKATSKVPSAPHFVHPNDHANREAELKKKWVEEMREKQQAAREQERQKRRTIESYCQDVLRRQEEFEHKEEVLQELNMFPQLDDEATRKAYYKEFRKVVEYSDVILEVLDARDPLGCRCFQMEEAVLRAQGNKKLVLVLNKIDLVPKEVVEKWLDYLRNELPTVAFKASTQHQVKNLNRCSVPVDQASESLLKSKACFGAENLMRVLGNYCRLGEVRTHIRVGVVGLPNVGKSSLINSLKRSRACSVGAVPGITKFMQEVYLDKFIRLLDAPGIVPGPNSEVGTILRNCVHVQKLADPVTPVETILQRCNLEEISNYYGVSGFQTTEHFLTAVAHRLGKKKKGGLYSQEQAAKAVLADWVSGKISFYIPPPATHTLPTHLSAEIVKEMTEVFDIEDTEQANEDTMECLATGESDELLGDTDPLEMEIKLLHSPMTKIADAIENKTTVYKIGDLTGYCTNPNRHQMGWAKRNVDHRPKSNSMVDVCSVDRRSVLQRIMETDPLQQGQALASALKNKKKMQKRADKIASKLSDSMMSALDLSGNADDGVGD

The target in the assay is Chromosome Region Maintenance 1 (CRM1) (human (endogenous in HeLa)) (UniProt O14980). The assay is described as follows: co-IP; lysates of HeLa cells transfected with GNL3L-GFP variants; equal amounts of lysate precipitated with anti-CRM1 antibody (endogenous CRM1), western blot with anti-GFP antibody. On the technique in general: Immunoblotting shows a protein as a band on a membrane.
For the molecule B1, the binding entry is on record as “no binding”. As for B2, the binding result was “binds”. Turning to B3, the binding result is recorded as “no binding”. In the case of B4, the binding result was “binds”.
